# Data as given in PubChem BioAssay AID1259405 (NCATS, 2018).
# Purpose: 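Knock-downs that lift recombinant protein yield in hamster ovary cells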 (primary screen)
# Cell system: Chinese hamster CHO-K1 ovary cells with stable secreted eGFP expression
# Knock-down reagent: single siRNA against mouse genes, 0.8 pmol siRNA per well (2 µl of 400 nM stock)
# Timing: 3 days
# Measurement: 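Per-well intracellular GFP measured by laser scanning cytometry, plus viability from ATP luminescence, each relative to plate median of non-targeting control wells, in %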
# Reading the numbers: GFP, % of control: higher = more GFP per well, higher productivity; viability (ATP), % of control: higher = more viable cells (more ATP)
# Hit rule: 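a knock-down is called active if GFP reaches 120% or more of non-targeting control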
# This is an unselected part of about 50,000 deposited reagents. Of all reagents, about 4,000 (8%) were called active. 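Mouse siRNA library applied to hamster cells; one well for each siRNA.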 Reagents against one gene are numbered here.
gene symbol,reagent,"GFP, % of control","viability (ATP), % of control",Outcome
Robo2 (roundabout guidance receptor 2),1,101,71.4,inactive
Robo2 (roundabout guidance receptor 2),2,58.2,115,inactive
Robo2 (roundabout guidance receptor 2),3,44.7,77.2,inactive
"Mfsd2a (MFSD2 lysolipid transporter A, lysophospholipid)",1,106,90.9,inactive
"Mfsd2a (MFSD2 lysolipid transporter A, lysophospholipid)",2,126,87.3,active
Tfeb (transcription factor EB),1,70.8,83.3,inactive
Tfeb (transcription factor EB),2,59.1,73.4,inactive
Tfeb (transcription factor EB),3,88.5,101,inactive
Dnase2b (deoxyribonuclease II beta),1,60.3,77.5,inactive
Dnase2b (deoxyribonuclease II beta),2,44.1,50,inactive
Dnase2b (deoxyribonuclease II beta),3,55.3,43,inactive
"Nlrp14 (NLR family, pyrin domain containing 14)",1,96,85,inactive
"Nlrp14 (NLR family, pyrin domain containing 14)",2,82.9,84.4,inactive
"Nlrp14 (NLR family, pyrin domain containing 14)",3,63.5,88.4,inactive
Cldn6 (claudin 6),1,30.6,27.9,inactive
Cldn6 (claudin 6),2,107,89.9,inactive
Cldn6 (claudin 6),3,127,115,active
"Zdhhc8 (zinc finger, DHHC domain containing 8)",1,119,57,inactive
"Zdhhc8 (zinc finger, DHHC domain containing 8)",2,86.5,74.2,inactive
"Zdhhc8 (zinc finger, DHHC domain containing 8)",3,86.5,99.1,inactive
Mef2b (myocyte enhancer factor 2B),1,71.5,67.1,inactive
Mef2b (myocyte enhancer factor 2B),2,43.7,50.6,inactive
Mef2b (myocyte enhancer factor 2B),3,90.3,87.8,inactive
Frk (fyn-related kinase),1,79.6,53.5,inactive
Fnip1 (folliculin interacting protein 1),1,69.6,61.2,inactive
Fnip1 (folliculin interacting protein 1),2,129,56.4,active
Fnip1 (folliculin interacting protein 1),3,81.6,96.6,inactive
Lcn5 (lipocalin 5),1,67.8,95.8,inactive
Lcn5 (lipocalin 5),2,68.8,59.3,inactive
Lcn5 (lipocalin 5),3,107,84.8,inactive
Or5p56 (olfactory receptor family 5 subfamily P member 56),1,54.5,61.1,inactive
Or5p56 (olfactory receptor family 5 subfamily P member 56),2,81.6,80.2,inactive
Or5p56 (olfactory receptor family 5 subfamily P member 56),3,28,32.9,inactive
Plekhg2 (pleckstrin homology and RhoGEF domain containing G2),1,60.8,53.1,inactive
Plekhg2 (pleckstrin homology and RhoGEF domain containing G2),2,74.7,87.7,inactive
Plekhg2 (pleckstrin homology and RhoGEF domain containing G2),3,42.4,74.7,inactive
F2r (coagulation factor II thrombin receptor),1,116,125,inactive
F2r (coagulation factor II thrombin receptor),2,45.9,71.5,inactive
F2r (coagulation factor II thrombin receptor),3,66.8,87,inactive

Continued (6 carried over from the part before).
gene symbol,reagent,"GFP, % of control","viability (ATP), % of control",Outcome
Plekhg2 (pleckstrin homology and RhoGEF domain containing G2),1,60.8,53.1,inactive
Plekhg2 (pleckstrin homology and RhoGEF domain containing G2),2,74.7,87.7,inactive
Plekhg2 (pleckstrin homology and RhoGEF domain containing G2),3,42.4,74.7,inactive
F2r (coagulation factor II thrombin receptor),1,116,125,inactive
F2r (coagulation factor II thrombin receptor),2,45.9,71.5,inactive
F2r (coagulation factor II thrombin receptor),3,66.8,87,inactive
Senp2 (SUMO/sentrin specific peptidase 2),1,81.1,85.4,inactive
Senp2 (SUMO/sentrin specific peptidase 2),2,62.8,56.9,inactive
Senp2 (SUMO/sentrin specific peptidase 2),3,64.5,67,inactive
Inpp5a (inositol polyphosphate-5-phosphatase A),1,88.4,47.1,inactive
Inpp5a (inositol polyphosphate-5-phosphatase A),2,75.1,56.5,inactive
Inpp5a (inositol polyphosphate-5-phosphatase A),3,90.8,77.3,inactive
Hdhd5 (haloacid dehalogenase like hydrolase domain containing 5),1,77.4,78.3,inactive
Hdhd5 (haloacid dehalogenase like hydrolase domain containing 5),2,60.2,56.3,inactive
Hdhd5 (haloacid dehalogenase like hydrolase domain containing 5),3,103,130,inactive
Vcp (valosin containing protein),1,6.62,6.49,inactive
Vcp (valosin containing protein),2,57.1,67.2,inactive
Vcp (valosin containing protein),3,25.4,17.1,inactive
Nop53 (NOP53 ribosome biogenesis factor),1,74.4,73.3,inactive
Nop53 (NOP53 ribosome biogenesis factor),2,46.3,49.2,inactive
Nop53 (NOP53 ribosome biogenesis factor),3,101,96.7,inactive
Or7a35 (olfactory receptor family 7 subfamily A member 35),1,45.8,65.4,inactive
Or7a35 (olfactory receptor family 7 subfamily A member 35),2,35.9,51.1,inactive
Or7a35 (olfactory receptor family 7 subfamily A member 35),3,30,60.6,inactive
Mbd3 (methyl-CpG binding domain protein 3),1,67.9,79.8,inactive
Mbd3 (methyl-CpG binding domain protein 3),2,52.1,53.6,inactive
Mbd3 (methyl-CpG binding domain protein 3),3,51.7,52.4,inactive
Spag16 (sperm associated antigen 16),1,82.3,77.8,inactive
Spag16 (sperm associated antigen 16),2,114,89.3,inactive
Spag16 (sperm associated antigen 16),3,104,92,inactive
Th (tyrosine hydroxylase),1,48.7,42,inactive
Th (tyrosine hydroxylase),2,63.8,86,inactive
Th (tyrosine hydroxylase),3,116,79,inactive
4930433N12Rik (RIKEN cDNA 4930433N12 gene),1,73.2,66.3,inactive
4930433N12Rik (RIKEN cDNA 4930433N12 gene),2,124,72.8,active
4930433N12Rik (RIKEN cDNA 4930433N12 gene),3,107,61.7,inactive
Hoxb13 (homeobox B13),1,62.3,67.8,inactive
Hoxb13 (homeobox B13),2,94.8,84.9,inactive
Hoxb13 (homeobox B13),3,53.1,106,inactive
Ctse (cathepsin E),1,76.8,93.5,inactive
Ctse (cathepsin E),2,172,93.3,active
Ctse (cathepsin E),3,76.9,63.6,inactive
"Clec10a (C-type lectin domain family 10, member A)",1,70.5,62.7,inactive
"Clec10a (C-type lectin domain family 10, member A)",2,70.7,88.7,inactive
"Clec10a (C-type lectin domain family 10, member A)",3,62.3,59,inactive
"Khdc3 (KH domain containing 3, subcortical maternal complex member)",1,97.9,80.1,inactive
"Khdc3 (KH domain containing 3, subcortical maternal complex member)",2,77.7,101,inactive
"Khdc3 (KH domain containing 3, subcortical maternal complex member)",3,97.5,111,inactive
Anxa6 (annexin A6),1,103,107,inactive
Anxa6 (annexin A6),2,66.8,84.7,inactive
Anxa6 (annexin A6),3,60.7,77.3,inactive
